This passage reports binding results from publication doi:10.1101/2025.10.17.683079.

The assay concerns the target T1, HDAC11 (mouse (endogenous in hippocampus)) (UniProt Q91WA3).
T1 sequence: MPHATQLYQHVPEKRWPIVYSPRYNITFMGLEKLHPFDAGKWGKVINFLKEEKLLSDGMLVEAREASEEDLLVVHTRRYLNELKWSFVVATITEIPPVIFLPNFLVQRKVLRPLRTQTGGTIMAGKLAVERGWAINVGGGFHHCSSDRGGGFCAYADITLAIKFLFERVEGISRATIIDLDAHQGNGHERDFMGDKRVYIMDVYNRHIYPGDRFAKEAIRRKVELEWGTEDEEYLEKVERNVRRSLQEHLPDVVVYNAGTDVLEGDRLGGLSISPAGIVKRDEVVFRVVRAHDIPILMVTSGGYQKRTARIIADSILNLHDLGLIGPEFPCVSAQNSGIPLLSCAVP
Description: co-IP.

Results are given in words; binding and its absence hold for the method and conditions named. In cells and extracts the contact can be indirect. Some entries that bind do so weakly or less than the wild type.

B1: NR1H2 (also known as LXRβ) (protein, UniProt Q60644 1-446)
chain: MSSPTSSLDTPVPGNGSPQPSTSATSPTIKEEGQETDPPPGSEGSSSAYIVVILEPEDEPERKRKKGPAPKMLGHELCRVCGDKASGFHYNVLSCEGCKGFFRRSVVHGGAGRYACRGSGTCQMDAFMRRKCQLCRLRKCKEAGMREQCVLSEEQIRKKRIQKQQQQQPPPPSEPAASSSGRPAASPGTSEASSQGSGEGEGIQLTAAQELMIQQLVAAQLQCNKRSFSDQPKVTPWPLGADPQSRDARQQRFAHFTELAIISVQEIVDFAKQVPGFLQLGREDQIALLKASTIEIMLLETARRYNHETECITFLKDFTYSKDDFHRAGLQVEFINPIFEFSRAMRRLGLDDAEYALLIAINIFSADRPNVQEPSRVEALQQPYVEALLSYTRIKRPQDQLRFPRMLMKLVSLRTLSSVHSEQVFALRLQDKKLPPLLSEIWDVHE
For B1, the binding entry is “binds”.
